Laboratory results: PubChem BioAssay AID1224830 (NIAID, 2016)

Assay: 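Host factors that control LPS-induced TNF expression in human macrophages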 (primary screen)
Cells: human THP-1 monocytic leukaemia cells, TNF dual-luciferase reporter clone, PMA-differentiated to macrophage-like cells
Reagent: siRNA pool against human genes, 50 nM
Time to read-out: LPS for 4 h, given about 3 days after siRNA transfection
Challenge: bacterial LPS (TLR4 ligand), 10 ng/ml
Read-out: 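Ratio of firefly to renilla light, scaled to the plate median and expressed as a robust z-score per replicate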
Direction: TNF reporter robust z-score: higher = stronger TNF reporter response to LPS
Hit rule: 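Each well counts as active if its z-score is over 2.8 or under -1.5; controls are left without a call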
In all, the deposit lists about 18,000 reagents; below is a part drawn at random. About 2,900 of all reagents (16%) count as active. 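Calls are made per well; low scores hint the gene aids the LPS response, high scores that it dampens it.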 Unmarked entries are inactive. Repeated entries: four replicate wells of each siRNA pool. Reagent sequences are not shown.

Gene	TNF reporter robust z-score
CDKN2D	1.5
CDKN2D	0.44
CDKN2D	0.98
CDKN2D	7.45 (active)
TSPAN18	-0.96
TSPAN18	-0.33
TSPAN18	-0.75
LDHAL6A	-0.69
LDHAL6A	0.19
LDHAL6A	0.08
LDHAL6A	1.3
UGT1A8	-1.05
UGT1A8	-0.58
UGT1A8	-0.5
UGT1A8	-0.86
RELN	1.12
RELN	0.35
RELN	-0.47
PSMD4	0.85
PSMD4	0.63
PSMD4	1.28
PSMD4	0.77
SLC1A6	-1.53 (active)
SLC1A6	-0.65
SLC1A6	-1.19
SLC1A6	-1.64 (active)
CDON	1.15
CDON	3.11 (active)
CDON	2.25
CDON	0.22
ARAP1	-0.66
ARAP1	-0.18
ARAP1	-0.53
ARAP1	-0.62
AEBP1	-1
AEBP1	-1.97 (active)
AEBP1	-1.31
AEBP1	-0.72
CYFIP2	-0.27
CYFIP2	-0.6
CYFIP2	-1.17
CYFIP2	-0.84
DHH	1.82
DHH	1.28
DHH	4.8 (active)
DHH	-0.32
DENND11	1.11
DENND11	1.96
DENND11	0.83
DENND11	0.77

Sorted by “TNF reporter robust z-score” (high to low): 16 of the entries above
Gene	TNF reporter robust z-score
LDHAL6A	1.3
PSMD4	1.28
RELN	1.12
PSMD4	0.85
PSMD4	0.77
PSMD4	0.63
RELN	0.35
LDHAL6A	0.19
LDHAL6A	0.08
RELN	-0.47
UGT1A8	-0.5
UGT1A8	-0.58
LDHAL6A	-0.69
UGT1A8	-0.86
UGT1A8	-1.05
SLC1A6	-1.53 (active)

Next records follow:
Gene	TNF reporter robust z-score
CIB3	-1.03
CIB3	-0.64
CIB3	0.29
CIB3	0.75
SERINC1	-1.1
SERINC1	-0.6
SERINC1	-1.07
SERINC1	-0.86
C11orf24	-0.37
C11orf24	0.3
C11orf24	-0.59
C11orf24	0.32
PRY	-0.43
PRY	-0.42
PRY	-0.31
PRY	0.02
ENTPD2	-1
ENTPD2	-0.9
ENTPD2	-0.18
ENTPD2	-0.65
KIR3DL3	0.47
KIR3DL3	-1.28
KIR3DL3	-1.05
KIR3DL3	-0.57
ARAP3	-0.58
ARAP3	1.02
ARAP3	1.28
ARAP3	-0.35
VHLL	0.32
VHLL	-0.49
VHLL	0.52
VHLL	0.6
BPIFA3	0.93
BPIFA3	-0.45
BPIFA3	0.56
BPIFA3	0.21
CAPZB	0.94
CAPZB	-0.75
CAPZB	1.06
CAPZB	-0.72
UEVLD	-1.46
UEVLD	-0.94
UEVLD	-0.38
UEVLD	-0.2
FKBPL	-0.02
FKBPL	0.14
FKBPL	-0.71
RAB2B	-0.04
RAB2B	1.99
RAB2B	1.06
RAB2B	2.93 (active)
CEP97	-0.38
CEP97	-0.06
CEP97	-0.29
CEP97	-0.92
ZDHHC5	0.98
ZDHHC5	0.38
ZDHHC5	-0.23
ZDHHC5	-0.08
PLCD1	0.21
PLCD1	2.5
PLCD1	0.85
PLCD1	1.59
